# Results from the supplement of paper PMC12889115.
# The other results are listed elsewhere or left out. Values are raw readings; no control value is given beside them.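 In the initial screen, polymyxin B was used at a concentration that permeabilizes Salmonella's outer membrane but not its inner membrane. Maximum growth was set by DMSO wells with or without polymyxin B. Since plates varied, data were ranked per plate, and compounds giving the lowest OD600 advanced as hits.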
# Tested on: Salmonella enterica serovar Typhimurium SL1344
# Test: bacterial growth OD600 after 18 h with compound and polymyxin B; higher = more bacterial growth (less inhibition)
# Details: 50 µM, Mueller-Hinton broth
Compound,bacterial growth OD600 (polymyxin B 0.75 µg/mL),bacterial growth OD600 (polymyxin B 1 µg/mL)
O=C(NCC1CC2C=CC1C21CC1)c1cc(Cc2ccc(F)cc2)no1 (configuration not stated),0.002,
CO[C@H]1[C@H](NC(=O)c2ccccn2)c2ccccc2C12CCN(C(=O)CSc1ncccn1)CC2,0.822,
Cc1cc(C)n(CCC(=O)N(Cc2ccncc2)Cc2cccc(OCCc3ccc(F)cc3)c2)n1,-0.001,
O=C(c1coc(COc2cccc(F)c2)n1)N1CC[C@@H]2CCCC[C@H]2C1,,0.043
CN(Cc1cn(C)nc1-c1cccc(Cl)c1)CC1Cc2ccccc2O1 (configuration not stated),,0.785
COCCN1C(=O)CC(CC(=O)N2CC3(C)CC2CC(C)(C)C3)(c2cccc(OC)c2)C1=O (configuration not stated),0.007,
Cc1ccoc1C(=O)N1CCC(C2CCN(CCc3ccccc3)C2)CC1 (configuration not stated),0.515,
COc1ccc(-c2n[nH]cc2CN(C)C(C)c2nccs2)c(OC)c1 (configuration not stated),,1
CN(CC1CCCCO1)C(=O)c1coc(COc2cccc(F)c2F)n1 (configuration not stated),,0.968
Cc1ccccc1C(=O)NC1CC(=O)N(Cc2ccc(F)cc2)C1 (configuration not stated),,0.789
CCOC(=O)C1(Cc2cccc(F)c2)CCN(Cc2cn(C)nc2C)CC1,,0.97
Cn1cc(CNC(=O)c2cc(COc3cccc(F)c3)[nH]n2)cn1,,0.939
Cc1ncc2c(c1CNS(=O)(=O)c1cccs1)CCN(C(=O)Cc1ccc(F)cc1Cl)C2,0.671,
COc1ccc(CN2CCNC(=O)C2CC(=O)N(C)Cc2cccnc2)c(F)c1 (configuration not stated),,0.93
COCc1ccc(C(=O)N2CCc3onc(-c4ccccc4F)c3C2)s1,0.491,
O=C(c1ccco1)N1CCC2(CCCN(Cc3ccc(F)cc3)C2=O)C1 (configuration not stated),,0.925

# Compounds from the list above that have sulfur (4):
Compound,bacterial growth OD600 (polymyxin B 0.75 µg/mL),bacterial growth OD600 (polymyxin B 1 µg/mL)
CO[C@H]1[C@H](NC(=O)c2ccccn2)c2ccccc2C12CCN(C(=O)CSc1ncccn1)CC2,0.822,
COc1ccc(-c2n[nH]cc2CN(C)C(C)c2nccs2)c(OC)c1 (configuration not stated),,1
Cc1ncc2c(c1CNS(=O)(=O)c1cccs1)CCN(C(=O)Cc1ccc(F)cc1Cl)C2,0.671,
COCc1ccc(C(=O)N2CCc3onc(-c4ccccc4F)c3C2)s1,0.491,

# More results

Compound,bacterial growth OD600 (polymyxin B 0.75 µg/mL),bacterial growth OD600 (polymyxin B 1 µg/mL)
O=C(CCC1CCCN(Cc2ccco2)C1)Nc1ccc(C(F)(F)F)cc1 (configuration not stated),,0.85
COCCC(=O)N1CCCCC1C(=O)Nc1cccc(-c2nnc(C)s2)c1 (configuration not stated),,0.83
CC(Cn1cncn1)NC(=O)C1(N(C)Cc2ccccc2)Cc2ccccc2C1 (configuration not stated),0.581,
Cc1nc(CN(C)CC2CCCN(CCc3ccc(Cl)cc3)C2)c[nH]1 (configuration not stated),0.785,
Cc1nn(C)c(C)c1C(C)NC1CCN(c2ccc(C(=O)NCc3ccc4c(c3)OCO4)cc2)CC1 (configuration not stated),0.868,
COc1ccc(OC2CCN(C(=O)C3CC3)CC2)c(C(=O)NC(C)c2ccc(F)cc2)c1 (configuration not stated),,0.867
COc1ccc(OC2CCN(C3CCCC3)CC2)c(C(=O)NCC(C)(C)CO)c1,,0.874
Cc1nc(C)c(CC(=O)N2CCCC(CNC(=O)c3ccc(F)cc3)C2)c(O)n1 (configuration not stated),0.815,
Cc1cccc(C(=O)N2CCC(C3(c4ccccn4)NC(=O)N(CCc4cccs4)C3=O)CC2)c1 (configuration not stated),1.01,
Fc1ccccc1-c1noc(-c2ccc(N3CCc4[nH]ncc4C3)nc2)n1,,0.517
COc1cccc(-c2cnc(-c3ccncc3)nc2C2CCN(Cc3ccc(N(C)C)cc3)CC2)c1,0.646,
COc1ccc(OC2CCN(C(=O)C3CC3)CC2)c(C(=O)N(C)Cc2ccc(C)cc2)c1,,0.584
Cc1ccc(OCc2cc(C(=O)N3CCC(Cc4ccccc4)CC3)no2)cn1,,0.707
CC(C)CCN(C)c1ccc(C(=O)N2CCCN(c3ncccn3)CC2)cn1,0.573,
COc1cc(CN2CCC3(CC2)c2ccccc2[C@@H](NC(=O)Cc2cccs2)[C@@H]3OC)ccc1O,0.792,
CC(NC(=O)CCC1(Cc2ccco2)CCC(=O)N1)c1ccccc1Cl (configuration not stated),0.856,
